This assay has as its target Ig27WT (titin's 27th immunoglobulin (Ig) domain), 6x His at the C-terminus (UniProt Q8WZ42). As to the kind of experiment: far-Western, overlay or dot blot; purified I27WT-6His and (GS)4-I27WT-6His spotted in triplicate on nitrocellulose, blocked with 3% BSA in PBS-T 16 h at 4 °C, incubated overnight at 4 °C with 750 OD units of bacterial lysate with overexpressed StrepII-tagged Nup FG-rich domain; detected with Strep-Tag II antibody HRP conjugate; intensity normalised by a control membrane (no Nup, anti-His-Tag antibody); five experiments; only the target purified.

Chains of the proteins cited; added tags and fusions are not shown. Residues count along the entry.
UniProt P35658, residues 1400-2090: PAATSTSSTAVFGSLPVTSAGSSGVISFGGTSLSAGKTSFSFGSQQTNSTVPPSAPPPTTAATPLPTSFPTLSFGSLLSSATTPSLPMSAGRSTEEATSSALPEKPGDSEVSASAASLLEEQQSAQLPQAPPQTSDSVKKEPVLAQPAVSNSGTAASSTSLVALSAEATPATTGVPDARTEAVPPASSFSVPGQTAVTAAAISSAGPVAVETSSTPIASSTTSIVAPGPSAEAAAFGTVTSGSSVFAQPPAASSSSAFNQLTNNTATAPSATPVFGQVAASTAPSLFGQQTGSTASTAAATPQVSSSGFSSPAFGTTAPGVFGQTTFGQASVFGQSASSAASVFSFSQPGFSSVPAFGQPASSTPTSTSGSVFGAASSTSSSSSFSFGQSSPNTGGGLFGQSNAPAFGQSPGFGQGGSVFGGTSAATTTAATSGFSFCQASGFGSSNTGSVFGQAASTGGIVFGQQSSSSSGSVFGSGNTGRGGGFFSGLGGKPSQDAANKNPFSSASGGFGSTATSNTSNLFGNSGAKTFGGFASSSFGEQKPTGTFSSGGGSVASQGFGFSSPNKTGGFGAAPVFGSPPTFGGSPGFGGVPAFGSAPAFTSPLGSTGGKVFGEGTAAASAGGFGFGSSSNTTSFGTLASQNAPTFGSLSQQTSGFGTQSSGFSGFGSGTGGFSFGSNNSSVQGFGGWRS
UniProt P49790, residues 901-1475: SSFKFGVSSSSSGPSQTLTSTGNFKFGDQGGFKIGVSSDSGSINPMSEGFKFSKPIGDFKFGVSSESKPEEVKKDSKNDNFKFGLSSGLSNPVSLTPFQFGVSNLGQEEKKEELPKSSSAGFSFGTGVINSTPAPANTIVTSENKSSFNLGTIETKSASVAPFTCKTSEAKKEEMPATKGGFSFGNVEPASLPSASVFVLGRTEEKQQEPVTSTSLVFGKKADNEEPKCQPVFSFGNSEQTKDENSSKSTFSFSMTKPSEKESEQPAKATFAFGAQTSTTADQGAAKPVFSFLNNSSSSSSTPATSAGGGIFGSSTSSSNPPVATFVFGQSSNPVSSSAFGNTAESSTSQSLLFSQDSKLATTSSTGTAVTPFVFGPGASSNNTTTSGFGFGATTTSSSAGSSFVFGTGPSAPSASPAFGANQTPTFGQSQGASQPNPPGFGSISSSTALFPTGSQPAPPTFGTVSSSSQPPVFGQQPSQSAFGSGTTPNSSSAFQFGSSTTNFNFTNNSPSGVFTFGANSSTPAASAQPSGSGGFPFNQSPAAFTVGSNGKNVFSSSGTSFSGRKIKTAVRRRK
UniProt P52948, residues 1-480: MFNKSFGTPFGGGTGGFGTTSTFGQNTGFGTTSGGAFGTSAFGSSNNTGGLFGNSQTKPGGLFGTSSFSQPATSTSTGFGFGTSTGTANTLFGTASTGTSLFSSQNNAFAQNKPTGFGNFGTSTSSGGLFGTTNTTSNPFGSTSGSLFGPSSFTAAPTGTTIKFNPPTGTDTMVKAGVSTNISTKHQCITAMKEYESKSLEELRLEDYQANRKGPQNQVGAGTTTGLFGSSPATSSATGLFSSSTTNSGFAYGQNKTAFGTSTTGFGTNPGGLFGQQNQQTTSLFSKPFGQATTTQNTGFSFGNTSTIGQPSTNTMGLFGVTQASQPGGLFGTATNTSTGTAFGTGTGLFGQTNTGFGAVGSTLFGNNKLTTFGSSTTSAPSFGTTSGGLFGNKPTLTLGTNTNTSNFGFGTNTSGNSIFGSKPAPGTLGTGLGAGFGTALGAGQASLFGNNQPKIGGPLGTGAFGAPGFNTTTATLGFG

No constants are given. Whether binding was seen depends on the method and setting. A result given as binding can be weak or reduced; the word gives no strength.

With “StrepII-tagged FG-rich domain of Nup214 (residues 1400-2090) (from UniProt P35658 1400-2090) (domain or fragment)”, the binding result is “no binding (tested: 750 OD units of bacterial lysates)”. The same measure for “StrepII-tagged FG-rich domain of Nup153 (residues 901-1475) (from UniProt P49790 901-1475) (domain or fragment)”: “binds”. The same measure for “StrepII-tagged FG-rich domain of Nup98 (residues 1-480) (from UniProt P52948 1-480) (domain or fragment)”: “no binding (tested: 750 OD units of bacterial lysates)”.

Source of the values: PMC11254768.
